# According to paper PMC7862700:
# The chains behind the UniProt entries cited, without tags or fusion partners. Where a name states a change or a piece, a line headed by the entry shows the natural chain unless it says otherwise.
# UniProt O43186: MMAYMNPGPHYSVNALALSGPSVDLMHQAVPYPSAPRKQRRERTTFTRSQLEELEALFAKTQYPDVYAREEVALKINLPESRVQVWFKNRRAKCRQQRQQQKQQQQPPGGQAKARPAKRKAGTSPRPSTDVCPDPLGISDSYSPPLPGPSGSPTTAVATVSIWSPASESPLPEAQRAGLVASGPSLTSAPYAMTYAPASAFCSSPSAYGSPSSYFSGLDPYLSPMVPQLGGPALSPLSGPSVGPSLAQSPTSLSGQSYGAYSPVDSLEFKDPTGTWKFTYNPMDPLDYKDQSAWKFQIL
# This is a selection; strong and weak results do not stand in their true shares. At the low end of the ranking, values are background and their order means little.
# Key:
# Experiment in all cases: DAPPL (digital affinity profiling via proximity ligation, sequencing)
# Conditions in all cases: 10 mM Tris-HCl pH 7.5, 50 mM NaCl, 1 mM DTT, 4% glycerol, room temperature, 30 min; GST-TFs on glutathione beads, 16-mer random dsDNA library, 0.1% …; high values mean tight binding; double strand, one strand shown; scale: fold enrichment (6-mer frequency, TF over GST control)
# FEV = molecular target: T1, FEV (UniProt Q99581)
# T1 sequence: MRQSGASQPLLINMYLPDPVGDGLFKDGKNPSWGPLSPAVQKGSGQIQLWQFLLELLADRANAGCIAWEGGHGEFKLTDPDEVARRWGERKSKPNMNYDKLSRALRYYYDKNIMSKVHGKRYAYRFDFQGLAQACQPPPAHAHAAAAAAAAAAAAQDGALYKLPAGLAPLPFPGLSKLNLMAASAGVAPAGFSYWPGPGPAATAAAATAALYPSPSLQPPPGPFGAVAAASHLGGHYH
# CRX = CRX (UniProt O43186)
# ELF5 = molecular target: T2, ELF5 (UniProt Q9UKW6-2)
# T2 sequence: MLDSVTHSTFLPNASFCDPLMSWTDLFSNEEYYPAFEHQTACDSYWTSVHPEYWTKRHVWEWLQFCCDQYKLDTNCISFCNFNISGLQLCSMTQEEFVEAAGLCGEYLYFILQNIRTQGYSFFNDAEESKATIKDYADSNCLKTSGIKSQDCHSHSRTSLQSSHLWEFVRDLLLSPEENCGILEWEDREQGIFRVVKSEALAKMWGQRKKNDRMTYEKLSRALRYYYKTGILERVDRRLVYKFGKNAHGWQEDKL
Sequence,binding signal (FEV),binding signal (CRX),binding signal (ELF5)
ACCAGT,0.46,0.408,0.44
GGCCAT,0.845,0.7,0.793
TCGCAG,0.918,0.822,0.866
GGTTGA,0.709,0.61,0.734
CGGGAT,0.587,0.788,0.746
GGGTGG,0.712,0.586,0.779
TGAGTA,0.416,0.461,0.394
TAGGCG,0.648,0.745,0.653
GAGGGG,0.53,0.436,0.509
GCATCA,0.723,0.644,0.708
GACGCA,0.506,0.41,0.554
AAGGAC,0.892,0.727,0.932
GTGTGT,0.457,0.399,0.516
GTGGGG,0.571,0.489,0.574
CATGAG,0.637,0.581,0.646
TAGAGT,0.738,0.936,0.761
AGTCCG,0.616,0.428,0.638
CCAGCC,0.804,0.682,0.74
AGACCA,0.66,0.59,0.63
AGTGGG,0.649,0.469,0.657
GCGGGC,0.804,0.553,0.605
CGGGTA,0.771,0.692,0.915
GGAACC,0.836,0.456,0.849

Sequence,binding signal (FEV),binding signal (CRX),binding signal (ELF5)
GCACCA,0.847,0.643,0.876
GGATTG,0.741,1.12,0.836
CGTAGT,0.767,0.641,0.858
GATTGT,0.799,0.948,0.748
GAGAGC,0.363,0.319,0.334
AGACCC,0.704,0.601,0.67
ATGTGA,0.663,0.588,0.644
CAGGTG,0.571,0.48,0.544
GCGGGA,0.367,0.322,0.371
GCCGGC,0.822,0.616,0.744
CATGGA,0.841,0.861,0.852
GTGGAC,0.96,0.635,0.878
GGAGAG,0.256,0.231,0.239
TAGGGA,0.783,0.993,0.898
TGGAGT,0.45,0.458,0.533
GGAGCC,0.336,0.268,0.309
GGGGAC,0.472,0.326,0.464
CACGGT,0.887,0.715,0.894
AGTTCG,0.743,0.645,0.705
ACGGGG,0.658,0.581,0.672
ACGTGA,0.263,0.241,0.258
GCATTG,0.784,0.657,0.769
GCGCTA,0.846,0.942,0.893

Sequence,binding signal (FEV),binding signal (CRX),binding signal (ELF5)
GCGAGG,0.575,0.522,0.63
GTAAGG,0.755,0.679,0.978
CAGTGG,0.477,0.437,0.477
GGTGCG,0.556,0.414,0.549
CCCGAG,0.878,0.781,0.792
TGAGTT,0.386,0.389,0.4
CGTGGT,0.561,0.44,0.586
GCGCCA,0.814,0.575,0.734
ACCGAG,0.78,0.703,0.745
AACGGG,0.716,0.604,0.729
GGCAAG,0.7,0.557,0.662
CGAGGG,0.665,0.591,0.62
TCAGTC,0.607,0.583,0.583
CCAGAC,0.671,0.619,0.672
GAGCCC,0.759,0.615,0.703
GGGCGA,0.814,0.663,0.779
GGTCGA,0.731,0.542,0.698
ACGTAG,0.762,0.675,0.774
GAGACG,0.324,0.261,0.297
CAAGTG,0.738,0.628,0.707
ACTGTG,0.485,0.395,0.476
CAGTTT,0.85,0.748,0.863
AGTCTA,0.676,0.79,0.731

# Whole records as entered above. Values in the order: binding signal (FEV)	binding signal (CRX)	binding signal (ELF5)
# AGTCTA reads 0.676	0.79	0.731
# CCAGAC reads 0.671	0.619	0.672

# 3 successive entries out of the list so far, for reference:
Sequence,binding signal (FEV),binding signal (CRX),binding signal (ELF5)
GGTCGA,0.731,0.542,0.698
ACGTAG,0.762,0.675,0.774
GAGACG,0.324,0.261,0.297

# More entries

Sequence,binding signal (FEV),binding signal (CRX),binding signal (ELF5)
GGGTCG,0.54,0.363,0.573
AGGAGG,0.227,0.192,0.248
GGCGAT,0.812,0.91,0.764
CAGGTT,0.637,0.548,0.636
GTCGGC,0.36,0.304,0.352
GCAGGC,0.674,0.544,0.692
CAGACG,0.477,0.367,0.452
CGGGGA,0.394,0.418,0.437
GGACGT,0.676,0.362,0.618
GGGCAG,0.596,0.437,0.588
ACGTGG,0.561,0.508,0.537
AGACAG,0.494,0.411,0.52
AGAGTT,0.73,0.733,0.825
CTAGAG,0.89,0.966,0.815
AGGACA,0.854,0.649,0.904
TCGGTA,0.566,0.564,0.577
TGGGGA,0.749,0.85,0.847
GTTAGG,0.761,0.774,0.805
GGTGCC,0.717,0.489,0.675
AGTGAT,0.846,0.896,0.895
AGGCCA,0.706,0.589,0.648
